Results: patent US20130058934A1
These are yes or no findings as the source states them, for the method shown. Some entries that bind do so weakly or less than the wild type.

Protein sequences, listed by entry. Tags and fused reporters are not part of them. Residues count along the entry.
UniProt O75581, residues 20-1370: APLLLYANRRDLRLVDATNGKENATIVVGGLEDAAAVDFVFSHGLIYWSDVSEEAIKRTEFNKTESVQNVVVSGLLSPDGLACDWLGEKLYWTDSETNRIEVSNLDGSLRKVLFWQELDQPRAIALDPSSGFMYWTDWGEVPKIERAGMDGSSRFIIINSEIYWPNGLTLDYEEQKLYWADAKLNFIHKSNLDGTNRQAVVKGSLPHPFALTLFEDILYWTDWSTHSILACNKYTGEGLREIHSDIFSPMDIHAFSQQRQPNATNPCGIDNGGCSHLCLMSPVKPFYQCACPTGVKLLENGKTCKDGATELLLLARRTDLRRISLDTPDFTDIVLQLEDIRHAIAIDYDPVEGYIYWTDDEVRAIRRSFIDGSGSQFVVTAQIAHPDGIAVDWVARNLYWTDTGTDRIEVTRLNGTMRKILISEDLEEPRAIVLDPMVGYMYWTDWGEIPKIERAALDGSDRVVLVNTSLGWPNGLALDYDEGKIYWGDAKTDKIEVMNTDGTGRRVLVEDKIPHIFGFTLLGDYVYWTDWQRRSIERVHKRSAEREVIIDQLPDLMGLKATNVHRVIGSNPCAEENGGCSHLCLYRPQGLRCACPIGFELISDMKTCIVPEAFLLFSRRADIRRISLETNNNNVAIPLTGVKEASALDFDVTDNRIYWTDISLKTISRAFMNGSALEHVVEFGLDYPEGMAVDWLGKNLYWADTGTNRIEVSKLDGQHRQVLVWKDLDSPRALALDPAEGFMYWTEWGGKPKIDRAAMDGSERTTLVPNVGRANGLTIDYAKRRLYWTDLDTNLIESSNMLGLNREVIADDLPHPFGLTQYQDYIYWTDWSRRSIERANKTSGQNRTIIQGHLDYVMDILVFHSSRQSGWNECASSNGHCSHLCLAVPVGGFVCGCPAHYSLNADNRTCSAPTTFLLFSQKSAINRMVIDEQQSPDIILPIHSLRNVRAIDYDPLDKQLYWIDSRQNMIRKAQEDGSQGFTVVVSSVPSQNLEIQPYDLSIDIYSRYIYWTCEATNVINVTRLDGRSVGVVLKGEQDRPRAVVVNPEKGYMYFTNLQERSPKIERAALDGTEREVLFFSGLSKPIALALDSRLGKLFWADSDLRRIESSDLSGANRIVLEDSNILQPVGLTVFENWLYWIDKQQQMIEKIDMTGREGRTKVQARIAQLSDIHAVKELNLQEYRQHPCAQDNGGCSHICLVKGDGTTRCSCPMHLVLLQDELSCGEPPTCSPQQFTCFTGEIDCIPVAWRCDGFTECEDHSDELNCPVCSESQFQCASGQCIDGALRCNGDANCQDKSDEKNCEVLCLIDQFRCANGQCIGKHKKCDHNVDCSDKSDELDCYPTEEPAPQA

Molecular target: LRP6-Fc (R&D Systems, catalog No: 1505-LR) (human) (UniProt O75581)
Assay: Proteon XPR36 kinetics with LRP6-Fc

binding | Binder
binds | scFv06475 VH:G34V (scFv, name in Kabat numbering, V domains shown) VH: QVQLKESGPALVKPTQTLTLTCTFSGFSLSNRGVGVGWIRQPPGKALEWLAWIDWDDDKSYSTSLKTRLTISKDTSKNQVVLTMTNMDPVDTATYYCARMHLPLVFDSWGQGTLVTVSS VL: DIVLTQSPATLSLSPGERATLSCRASQFIGSRYLAWYQQKPGQAPRLLIYGASNRATGVPARFSGSGSGTDFTLTISSLEPEDFATYYCQQYYDYPQTFGQGTKVEIK
binds | scFv06475 VH:I37F (scFv, name in Kabat numbering, V domains shown) VH: QVQLKESGPALVKPTQTLTLTCTFSGFSLSNRGGGVGWFRQPPGKALEWLAWIDWDDDKSYSTSLKTRLTISKDTSKNQVVLTMTNMDPVDTATYYCARMHLPLVFDSWGQGTLVTVSS VL: DIVLTQSPATLSLSPGERATLSCRASQFIGSRYLAWYQQKPGQAPRLLIYGASNRATGVPARFSGSGSGTDFTLTISSLEPEDFATYYCQQYYDYPQTFGQGTKVEIK
